Results published in PMC8096975.

Target: T1, GIPC2-HA (human) (UniProt Q8TF65)
T1 sequence: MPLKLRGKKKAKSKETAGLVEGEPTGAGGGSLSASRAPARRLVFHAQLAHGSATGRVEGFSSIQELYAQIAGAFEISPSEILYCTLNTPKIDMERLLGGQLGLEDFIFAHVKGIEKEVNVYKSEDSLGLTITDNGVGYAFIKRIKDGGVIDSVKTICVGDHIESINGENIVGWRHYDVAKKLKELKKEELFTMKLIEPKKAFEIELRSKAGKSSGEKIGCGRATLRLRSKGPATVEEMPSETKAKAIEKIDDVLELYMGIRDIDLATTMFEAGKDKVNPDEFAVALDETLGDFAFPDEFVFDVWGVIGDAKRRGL
Test: affinity purification with mass spectrometry; extracts of 293T cells overexpressing GIPC2-HA immunoprecipitated with anti-HA antibody; SDS-PAGE, coomassie staining, four bands excised, LC-MS/MS

binding: binds
B1: NONO (endogenous, 293T) (protein, UniProt Q15233 1-471)
chain: MQSNKTFNLEKQNHTPRKHHQHHHQQQHHQQQQQQPPPPPIPANGQQASSQNEGLTIDLKNFRKPGEKTFTQRSRLFVGNLPPDITEEEMRKLFEKYGKAGEVFIHKDKGFGFIRLETRTLAEIAKVELDNMPLRGKQLRVRFACHSASLTVRNLPQYVSNELLEEAFSVFGQVERAVVIVDDRGRPSGKGIVEFSGKPAARKALDRCSEGSFLLTTFPRPVTVEPMDQLDDEEGLPEKLVIKNQQFHKEREQPPRFAQPGSFEYEYAMRWKALIEMEKQQQDQVDRNIKEAREKLEMEMEAARHEHQVMLMRQDLMRRQEELRRMEELHNQEVQKRKQLELRQEEERRRREEEMRRQQEEMMRRQQEGFKGTFPDAREQEIRMGQMAMGGAMGINNRGAMPPAPVPAGTPAPPGPATMMPDGTLGLTPPTTERFGQAATMEGIGAIGGTPPAFNRAAPGAEFAPNKRRRY

No constants are given. Whether binding was seen depends on the method and setting. In cells and extracts the contact can be indirect. A yes stands for co-enrichment or nearness to the bait. Other partners may have been found. Sequences can lack the tags named with a protein.
